Reference: publication PMC3900708
These are yes or no findings as the source states them, for the method shown. Some results given as binding are weak or reduced against the parent protein; the word gives no strength. Sequences can lack the tags named with a protein.

Protein sequences, listed by entry. Tags and fused reporters are not part of them. Lines headed by an entry give the natural chain unless they say otherwise; changes in a name come on top.
UniProt P20339: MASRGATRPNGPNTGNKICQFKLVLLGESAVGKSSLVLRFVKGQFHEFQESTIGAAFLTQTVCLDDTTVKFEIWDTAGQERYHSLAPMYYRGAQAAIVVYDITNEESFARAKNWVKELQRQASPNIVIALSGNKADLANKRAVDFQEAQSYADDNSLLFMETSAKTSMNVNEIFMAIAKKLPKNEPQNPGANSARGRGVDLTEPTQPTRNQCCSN

How the values were obtained:
Experiment in all cases: pull-down; GST-Rab5 (Q79L) incubated with purified His-vinculin deletion mutants, His-pull-down; beads assayed by western blot; both purified
His-vin258-880 = biological target: T1, His-vin258-880 (UniProt P12003)
T1 sequence: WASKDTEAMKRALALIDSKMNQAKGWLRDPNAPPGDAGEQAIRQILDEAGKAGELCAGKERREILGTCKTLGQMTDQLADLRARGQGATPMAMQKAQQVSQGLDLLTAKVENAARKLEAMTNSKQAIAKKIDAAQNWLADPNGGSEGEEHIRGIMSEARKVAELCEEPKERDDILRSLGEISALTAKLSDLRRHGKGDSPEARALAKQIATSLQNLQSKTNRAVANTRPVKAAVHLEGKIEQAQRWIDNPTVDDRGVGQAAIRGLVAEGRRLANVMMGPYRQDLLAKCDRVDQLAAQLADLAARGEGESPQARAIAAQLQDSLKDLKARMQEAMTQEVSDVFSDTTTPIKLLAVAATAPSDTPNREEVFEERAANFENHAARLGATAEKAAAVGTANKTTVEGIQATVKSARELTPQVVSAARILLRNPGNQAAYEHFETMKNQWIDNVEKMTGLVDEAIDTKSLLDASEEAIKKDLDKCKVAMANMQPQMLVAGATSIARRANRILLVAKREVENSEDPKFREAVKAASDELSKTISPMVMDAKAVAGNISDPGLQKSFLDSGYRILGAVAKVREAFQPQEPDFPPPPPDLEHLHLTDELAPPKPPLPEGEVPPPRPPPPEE

His-vin1-258 = biological target: T2, His-vin1-258 (UniProt P12003)
T2 sequence: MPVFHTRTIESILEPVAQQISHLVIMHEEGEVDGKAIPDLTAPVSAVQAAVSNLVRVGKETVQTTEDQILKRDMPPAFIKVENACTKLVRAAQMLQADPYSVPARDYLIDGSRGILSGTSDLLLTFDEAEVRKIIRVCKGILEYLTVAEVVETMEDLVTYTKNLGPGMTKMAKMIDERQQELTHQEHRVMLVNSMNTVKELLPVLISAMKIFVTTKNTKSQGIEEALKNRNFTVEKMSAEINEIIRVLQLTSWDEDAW

His-vin1-880 = biological target: T3, His-vin1-880 (UniProt P12003)
T3 sequence: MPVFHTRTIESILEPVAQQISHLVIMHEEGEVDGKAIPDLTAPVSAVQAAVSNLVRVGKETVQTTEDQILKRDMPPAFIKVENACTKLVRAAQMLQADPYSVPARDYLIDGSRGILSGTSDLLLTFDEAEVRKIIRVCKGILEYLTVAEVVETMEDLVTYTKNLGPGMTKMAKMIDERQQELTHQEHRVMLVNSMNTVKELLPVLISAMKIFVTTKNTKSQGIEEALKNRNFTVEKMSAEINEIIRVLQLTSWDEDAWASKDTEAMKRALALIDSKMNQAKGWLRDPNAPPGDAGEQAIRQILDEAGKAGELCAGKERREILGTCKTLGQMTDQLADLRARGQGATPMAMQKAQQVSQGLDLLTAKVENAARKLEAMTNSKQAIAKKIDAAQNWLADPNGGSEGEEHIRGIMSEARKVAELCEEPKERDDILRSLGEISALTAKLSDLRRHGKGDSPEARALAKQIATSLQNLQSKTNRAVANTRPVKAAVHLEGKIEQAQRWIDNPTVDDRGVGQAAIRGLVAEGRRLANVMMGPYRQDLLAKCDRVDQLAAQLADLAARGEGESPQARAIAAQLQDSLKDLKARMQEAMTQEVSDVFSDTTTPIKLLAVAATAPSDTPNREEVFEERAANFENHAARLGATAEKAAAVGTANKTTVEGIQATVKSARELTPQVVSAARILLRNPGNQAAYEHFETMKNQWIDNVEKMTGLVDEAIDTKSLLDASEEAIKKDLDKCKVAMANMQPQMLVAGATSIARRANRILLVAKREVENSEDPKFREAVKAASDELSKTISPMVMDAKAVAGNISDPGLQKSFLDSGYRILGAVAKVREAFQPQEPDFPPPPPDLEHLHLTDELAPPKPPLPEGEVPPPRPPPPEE

binding (His-vin258-880): no binding
binding (His-vin1-258): binds
binding (His-vin1-880): binds
Substance: GST-Rab5 (Q79L) (from UniProt P20339 1-215)
